For at least one entry, the source does not settle the construct or the ends of the probe. At least one result comes from cells or an extract, where the contact may be indirect. For part of these data: At least one verdict was read from the data and is not stated in words by the source.
biological target: MATα2 (HepG2 nuclear extract, supershift) (human) (UniProt P31153); test: EMSA supershift; details: anti-MATα2 antibody (3 μg); LightShift Chemiluminescent EMSA Kit protocol (Thermo); pH and binding temperature not stated; protein in an extract

The chains behind the UniProt entries cited, without tags or fusion partners. Where a name states a change or a piece, a line headed by the entry shows the natural chain unless it says otherwise.
UniProt P31153: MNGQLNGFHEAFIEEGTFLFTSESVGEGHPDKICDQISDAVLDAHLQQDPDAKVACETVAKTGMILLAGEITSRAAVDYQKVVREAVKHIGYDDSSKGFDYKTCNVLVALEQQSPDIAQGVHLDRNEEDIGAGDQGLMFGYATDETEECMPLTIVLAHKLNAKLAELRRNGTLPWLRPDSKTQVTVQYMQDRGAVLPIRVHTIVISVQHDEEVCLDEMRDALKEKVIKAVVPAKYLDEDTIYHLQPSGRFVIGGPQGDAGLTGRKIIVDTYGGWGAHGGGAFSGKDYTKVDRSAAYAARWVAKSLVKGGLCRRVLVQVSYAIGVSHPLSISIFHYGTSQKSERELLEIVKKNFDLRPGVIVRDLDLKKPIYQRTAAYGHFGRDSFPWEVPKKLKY

Sequence | binding result
GGCAGCTTAATACATTCTTTTTAGCCG (double strand) [Bcl-2 P2 promoter probe 3 (site 3)] | binds
GGTTTAATGTAACTTTCAATGG (double strand) [Bcl-2 P2 promoter probe 2 (site 2)] | binds
TGCGGATTGACATTTCTGTGAA (double strand) [Bcl-2 P2 promoter probe 1 (site 1)] | binds

biological target: MATα2 (RKO nuclear extract, supershift) (human) (UniProt P31153); test: EMSA supershift; details: anti-MATα2 antibody (3 μg); LightShift Chemiluminescent EMSA Kit protocol (Thermo); pH and binding temperature not stated; protein in an extract

Sequence | binding result
GGCAGCTTAATACATTCTTTTTAGCCG (double strand) [Bcl-2 P2 promoter probe 3 (site 3)] | binds
GGTTTAATGTAACTTTCAATGG (double strand) [Bcl-2 P2 promoter probe 2 (site 2)] | binds
TGCGGATTGACATTTCTGTGAA (double strand) [Bcl-2 P2 promoter probe 1 (site 1)] | binds

From article PMC4741959
